In article PMC5292684, “High affinity anchoring of the decoration protein pb10 onto the bacteriophage T5 capsid” (Scientific Reports, 2017):
Results are given in words; binding and its absence hold for the method and conditions named. For part of these data: Binding can be weak; no strength is given. Tags and fused reporters may be left off the sequences shown.

Columns and labels:
[1] = biological target: bacteriophage T5 empty expanded capsid (without pb10) (bacteriophage T5); assay: cryo-EM structure; icosahedral reconstructions of empty expanded capsids with pb10 (9 Å) and without pb10 (8 Å); pb8 homology model fitted into the hexamer density; both purified
[2] = biological target: bacteriophage T5 empty expanded capsid (without pb10) (bacteriophage T5); assay: SPR; expanded capsids incubated with His-tagged pb10 at a molar ratio of 6.8 x 10^-3 pb10 per hexamer, captured on a Ni2+-NTA sensor chip; untagged pb10 injected over them; both purified
[3] = biological target: bacteriophage T5 empty expanded capsid (without pb10) (bacteriophage T5); assay: SPR; expanded capsids incubated with His-tagged pb10 at a 10-fold higher ratio (6.8 x 10^-2 per hexamer), captured on a Ni2+-NTA sensor chip; untagged pb10 injected over them; both purified
[4] = biological target: bacteriophage T5 DNA-filled heads lacking pb10 (bacteriophage T5); assay: native gel or EMSA; purified capsids mixed with various amounts of pb10, NTD, CTD or mutants, 4 °C for 30 min; 1.5% native agarose gel in TAMg buffer (40 mM Tris-HCl, 20 mM acetic acid, 1 mM MgSO4, pH around 8.1), 25 V overnight, Coomassie blue; hexamers 150 nM, proteins 60 to 300 nM; both purified
[5] = biological target: bacteriophage T5 empty expanded capsid (without pb10) (bacteriophage T5); assay: as above
[6] = biological target: bacteriophage T5 empty expanded capsid (without pb10) (bacteriophage T5); assay: condition: only capsids first incubated with His-tagged pb10 at 6.8 × 10^-2 per hexamer (already fully decorated); SPR; expanded capsids incubated with His-tagged pb10 at a 10-fold higher ratio (6.8 x 10^-2 per hexamer), captured on a Ni2+-NTA sensor chip; untagged pb10 injected over them; both purified

Row | Binder | binding [1] | binding [2] | binding [3] | binding [4] | binding [5] | binding [6]
1 | decoration protein pb10 of bacteriophage T5, full-length, fused to a C-terminal histidine tag (natural protein, UniProt Q6QGD6 1-164, looked up, decoration protein pb10 of bacteriophage T5, 164 amino acids, GenBank AAU05286; Monomer by SEC-MALLS (17 kDa); 18.3 kDa with the His tag; also called pb10-His; His-tagged pb10; source: pET28b expression vector, purified (expression and purification detailed in SI); not shown: His-Tag, C-terminal, kept) MIDYSGLRTIFGEKLPESHIFFATVAAHKYVPSYAFLRRELGLSSAHTNRKVWKKFVEAYGKAIPPAPPAPPLTLSKDLTASMSVEEGAALTLSVTATGGTGPYTYAWTKDGSPIPDASGATYTKPTAAAEDAGSYKVTVTDSKQVSKDSTTCAVTVNPTVPGG | binds | binds | binds | binds | binds | 
2 | pb10 N-terminal domain (NTD), residues 1 to 77 (domain or fragment, UniProt Q6QGD6 1-77) MIDYSGLRTIFGEKLPESHIFFATVAAHKYVPSYAFLRRELGLSSAHTNRKVWKKFVEAYGKAIPPAPPAPPLTLSK |  |  |  |  | binds | 
3 | untagged pb10 (protein, UniProt Q6QGD6 1-164) MIDYSGLRTIFGEKLPESHIFFATVAAHKYVPSYAFLRRELGLSSAHTNRKVWKKFVEAYGKAIPPAPPAPPLTLSKDLTASMSVEEGAALTLSVTATGGTGPYTYAWTKDGSPIPDASGATYTKPTAAAEDAGSYKVTVTDSKQVSKDSTTCAVTVNPTVPGG |  | binds |  |  |  | no binding
4 | pb10 C-terminal domain (CTD), residues 72 to 164 (domain or fragment, UniProt Q6QGD6 72-164) PLTLSKDLTASMSVEEGAALTLSVTATGGTGPYTYAWTKDGSPIPDASGATYTKPTAAAEDAGSYKVTVTDSKQVSKDSTTCAVTVNPTVPGG |  |  |  |  | no binding (tested: tenfold molar ratio) | 
